In article doi:10.1101/736611:
No constants are given. Whether binding was seen depends on the method and setting. Binding seen in cells or lysates may run through a third protein. Some results given as binding are weak or reduced against the parent protein; the word gives no strength. Values belong to the substance of their own block, whether it stands above or below them.

Protein sequences, listed by entry. Tags and fused reporters are not part of them. Lines headed by an entry give the natural chain unless they say otherwise; changes in a name come on top.
UniProt P21728: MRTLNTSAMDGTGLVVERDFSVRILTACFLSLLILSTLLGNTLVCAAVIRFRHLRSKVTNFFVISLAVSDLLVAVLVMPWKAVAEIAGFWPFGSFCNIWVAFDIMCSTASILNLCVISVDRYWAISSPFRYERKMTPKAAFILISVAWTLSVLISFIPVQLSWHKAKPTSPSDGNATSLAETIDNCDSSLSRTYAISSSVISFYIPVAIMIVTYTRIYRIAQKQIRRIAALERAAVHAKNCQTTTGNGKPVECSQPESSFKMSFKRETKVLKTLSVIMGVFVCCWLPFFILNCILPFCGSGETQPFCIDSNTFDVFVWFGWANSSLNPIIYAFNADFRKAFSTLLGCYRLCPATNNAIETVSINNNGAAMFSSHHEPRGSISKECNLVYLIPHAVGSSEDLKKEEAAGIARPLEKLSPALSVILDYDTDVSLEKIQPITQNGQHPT
UniProt P21918: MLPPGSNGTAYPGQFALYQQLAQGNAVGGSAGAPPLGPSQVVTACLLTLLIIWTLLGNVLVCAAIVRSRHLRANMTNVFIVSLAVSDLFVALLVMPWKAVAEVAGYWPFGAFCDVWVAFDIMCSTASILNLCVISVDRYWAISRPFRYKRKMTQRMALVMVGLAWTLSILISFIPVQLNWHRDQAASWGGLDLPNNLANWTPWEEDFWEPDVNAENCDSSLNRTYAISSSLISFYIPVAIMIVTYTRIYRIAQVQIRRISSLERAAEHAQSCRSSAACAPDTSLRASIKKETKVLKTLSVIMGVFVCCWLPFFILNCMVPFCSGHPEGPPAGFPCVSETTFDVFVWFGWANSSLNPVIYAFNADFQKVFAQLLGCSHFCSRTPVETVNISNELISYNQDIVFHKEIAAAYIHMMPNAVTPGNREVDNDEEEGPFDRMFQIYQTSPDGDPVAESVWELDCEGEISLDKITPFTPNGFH

What was measured:
[1] = target: D1R fused to the N-terminal portion of EYFP (pBiFC-DRD1-YN155) (human) (UniProt P21728); assay: split reporter
[2] = target: dopamine D5 receptor (human (endogenous in hRPTCs)) (UniProt P21918); assay: co-IP
[3] = target: dopamine D1 receptor (human (endogenous in hRPTCs)) (UniProt P21728); assay: co-IP

binding [1]: binds
Substance: D5R fused to the C-terminal portion of EYFP (pBiFC-DRD5-YC155) (from UniProt P21918 1-477) (receptor)

binding [2]: binds
Substance: dopamine D1 receptor (from UniProt P21728 1-446)

binding [3]: binds
Substance: dopamine D5 receptor (from UniProt P21918 1-477)
